Laboratory results from PubChem BioAssay AID504467 (National Center for Advancing Translational Sciences (NCATS), 2011).
The campaign covered roughly 330,000 compounds. About 7,700 (2.3%) were called active. Inconclusive results, whose numbers are uncertain, are shown with a selection of clear calls. The call rests on the fitted dose curve; in most records, active means well fitted inhibition curve with a large enough effect; inconclusive means small, poorly fitted or top-dose-only effect, or effect the other way; inactive means flat fitted curve, though single readings scatter. Potencies beside an inconclusive call are fits to weak or partial responses and may not hold up.

assay: qHTS screen for small molecules that inhibit ELG1-dependent DNA repair in human embryonic kidney (HEK293T) cells expressing luciferase-tagged ELG1; details: HEK293T ELG1-luciferase reporter, luminescence, 16 h, DNA damage induced by 5-fluorouridine; series mostly up to 46.1 µM; further: nearly all actives have a fitted effect of over 55% in size
Method in brief: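 Overnight (16 hr) co-exposure of 2,000 cells/well to 5-fluorouridine and compound at 37 °C preceded detection. Luciferase was quantified via ONE-Glo luminescence; loss of signal denotes inhibition.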
Potency means the concentration at half of the fitted maximal effect.

SMILES | Potency
Nn1c(SCc2ccccc2)nnc1-c1ccco1 | inconclusive: 18.4 µM [activator, single point]
O=S(=O)(c1cccc(-c2nc3ccccc3s2)c1)N1CCCC1 | inactive
CN(CC(=O)Nc1ccc(F)cc1)C(=O)c1cc(-c2ccco2)nc2ccccc12 | inconclusive: 29.1 µM [inhibitor, single point]
Cc1cc(C)c2nc(NNC(=O)c3ccc(S(=O)(=O)N4CCc5ccccc5C4)cc3)sc2c1 | inactive
Nn1c(SCC(=O)NC2CCCCC2)nnc1C1CC1 | inconclusive: 35.5 µM [activator, partial curve, poor fit]
NCCSC1CC(=O)N(Cc2ccc(F)cc2)C1=O (stereo not given) | inconclusive: 32.6 µM [activator, partial curve, poor fit]
CCN(CC)S(=O)(=O)c1ccc(/C=C/C(=O)Nc2ccc(F)cc2F)cc1 | inconclusive: 6.51 µM [inhibitor, partial curve]
CC1CCN(CC(=O)Nc2ccc(Br)cc2[N+](=O)[O-])CC1 | inconclusive: 32.6 µM [activator, partial curve, poor fit]
CC(C)N1CCN(C(=O)c2ccc(OC3CCN(CCc4ccccc4)CC3)cc2)CC1 | inactive
COc1ccc(Oc2ccc(/C=C/C(=O)c3ccc(O)cc3)cc2[N+](=O)[O-])cc1 | inconclusive: 29.1 µM [inhibitor, single point]
Cc1cc(C(=O)COc2ccc(F)cc2Br)c(C)n1C1CC1 | inconclusive: 13 µM [activator, partial curve]
Cc1[nH]n(-c2ccccc2)c(=O)c1/C=N/N(C)c1ccccc1 | inactive
COC(=O)Cn1cc(/C=C/[N+](=O)[O-])c2ccccc21 | inconclusive: 20.6 µM [activator, single point]
CCN(Cc1ccc(NC(C)=O)cc1)CC1CCCN(CCc2cccc(F)c2)C1 (stereo not given) | inactive
COc1cccc(NC(=O)c2cn(C)c(=O)c3cc(OC)c(OC)cc23)c1 | inactive
COCCNC(=O)c1ccccc1-c1nc(-c2ccccc2Cl)no1 | inconclusive: 32.6 µM [activator, partial curve, poor fit]
COc1ccc(N2CCN(C(=O)CCNC(=O)c3ccc(C(C)(C)C)cc3)CC2)cc1 | inconclusive: 23.1 µM [inhibitor, partial curve, poor fit]
Cc1ccccc1NC(=O)CN1CCc2ccccc2C1 | inactive
Cc1ccc(S(=O)(=O)N2C[C@@H]3[C@H]4CC[C@H](C4)[C@@H]3[C@@H](C)[C@@H]2c2cn(Cc3ccccc3)c3ncccc23)cc1 | inconclusive: 6.51 µM [inhibitor, partial curve, poor fit]
COc1cccc(C2C(C(=O)Nc3ccccc3)=C(C)N=c3s/c(=C/c4ccc(OCC(=O)O)cc4)c(=O)n32)c1 (stereo not given) | inactive
Nc1[nH]n(-c2ccccc2)c(=O)c1N=Nc1ccccc1[N+](=O)[O-] | inconclusive: 2.91 µM [activator, full curve]
O=C(c1ccc(S(=O)(=O)N2CCCC2)cc1)N1CCN(Cc2ccc3c(c2)OCO3)CC1 | inconclusive: 13 µM [inhibitor, partial curve, poor fit]

SMILES | Potency
Cn1nccc1C(=O)Nc1ccccc1C(=O)O | inconclusive: 29.1 µM [activator, single point]
O=C(NNC1=Nc2ccccc2SC1)c1ccccc1F | active: 5.8 µM
COc1ccc(-c2ccccc2)cc1NCc1ccccc1C | inconclusive: 29.1 µM [activator, single point]
CCOc1cc(C(=O)OCC(=O)Nc2ncc(Cl)c(C)c2Cl)ccc1OCC(=O)N1CCOCC1 | inconclusive: 16.4 µM [inhibitor, partial curve]
COc1cc(/C=N/NC(=O)c2ccc(N(C)S(=O)(=O)c3ccccc3)cc2)cc(OC)c1OC | inconclusive: 18.4 µM [inhibitor, single point]
CC(C)CC(=O)Nc1ncnc2c1C(=O)CC(C)(C)C2 | inconclusive: 23.1 µM [activator, partial curve, poor fit]
COc1nccnc1NS(=O)(=O)c1ccc(N=Cc2c(C)[nH]n(-c3ccc(C)c(C)c3)c2=O)cc1 | inconclusive: 18.4 µM [activator, partial curve, poor fit]
Cn1c(N)c(C(=O)COC(=O)C2(c3cccc(F)c3)CCCC2)c(=O)n(C)c1=O | inconclusive: 18.4 µM [inhibitor, single point]
COc1cccc(CNn2cnnc2)c1OCc1ccc(F)cc1 | inactive
C[C@H](CO)N1C[C@H](C)[C@@H](CN(C)S(=O)(=O)c2ccccc2)Oc2c(NC(=O)Nc3ccc(C(F)(F)F)cc3)cccc2C1=O | inconclusive: 25.9 µM [inhibitor, single point]
COc1ccc(C(Nc2ccccn2)c2c(NC(=O)c3ccco3)sc(C)c2C)cc1 (stereo not given) | inactive
Cn1c(-c2ccc3nc(N)sc3c2)nc2cc(N)ccc21 | inconclusive: 20.6 µM [activator, single point]
Cc1ccccc1CNC(=O)Nc1ccc(Cl)cc1 | inconclusive: 16.4 µM [activator, partial curve]
S=c1[nH]nc(C(c2ccccc2)C2CCCCC2)o1 (stereo not given) | inactive
O=C(NC(=O)c1ccc(F)cc1)Nc1nc(-c2cccs2)cc(C(F)(F)F)n1 | inconclusive: 7.31 µM [inhibitor, partial curve, poor fit]
CCOc1cc(NC(=O)c2ccccn2)c(OCC)cc1NC(=O)c1cccc(C)c1 | inconclusive: 4.11 µM [inhibitor, partial curve, poor fit]
Cc1ccc2nc(SCC(=O)NC3CCCc4ccccc43)[nH]c2c1 (stereo not given) | inconclusive: 29.1 µM [inhibitor, single point]
O=C(NCCOc1ccccc1)C(=O)c1c[nH]c2ccccc12 | inconclusive: 18.3 µM [activator, partial curve]
COc1cccc(-c2nc(N3CCN(C)CC3)c3ccccc3n2)c1O | inactive
CCS(=O)(=O)N1Cc2ccccc2CC1C(=O)N1CCN(c2cccc(C)c2C)CC1 (stereo not given) | inconclusive: 14.6 µM [inhibitor, partial curve, poor fit]
Cc1cc(C(F)F)n2nc(C(=O)Nc3sc4c(c3C(N)=O)CCC4)nc2n1 | inconclusive: 29.1 µM [inhibitor, single point]
CCCc1cc(=O)oc2c3c(cc(OCC(=O)NCCCn4ccnc4)c12)OC(C)(C)CC3 | inconclusive: 8.2 µM [inhibitor, partial curve]

Quoted from the listing:
Entry for `NCCSC1CC(=O)N(Cc2ccc(F)cc2)C1=O` (stereo not given) under Potency: inconclusive: 32.6 µM [activator, partial curve, poor fit]
Entry for `CCCc1cc(=O)oc2c3c(cc(OCC(=O)NCCCn4ccnc4)c12)OC(C)(C)CC3` under Potency: inconclusive: 8.2 µM [inhibitor, partial curve]

(further entries)

SMILES | Potency
COc1ccc(OC)c(N2C(=O)CCCC2=O)c1 | inactive
COC(=O)c1cc(C(C)=O)n2ccccc12 | inconclusive: 20.6 µM [activator, single point]
Cc1ccc2nc(-c3ccc(NC(=O)C4CCCO4)cc3)[nH]c2c1 (stereo not given) | inconclusive: 0.461 µM [activator, full curve]
Cc1cccc(C)c1NC(=O)N1C(C(=O)O)CSC1C(=O)O (stereo not given) | inconclusive: 23.1 µM [inhibitor, single point]
CCOc1cc(C2C(C#N)=C(N)Oc3n[nH]c(CC)c32)ccc1OCCN1CCOCC1 (stereo not given) | inactive
O=C(c1ccc(Cn2c(=S)[nH]c3ccc(N4CCOCC4)cc3c2=O)cc1)N1CCN(c2ccc(F)cc2)CC1 | inconclusive: 14.6 µM [inhibitor, partial curve, poor fit]
N#Cc1ccccc1OCC(=O)NC(=O)NC1CCS(=O)(=O)C1 (stereo not given) | inconclusive: 16.4 µM [activator, partial curve]
Cc1cc(NC(=O)c2cc(-c3ccccn3)nc3c(Cl)cccc23)no1 | inactive
COc1cccc(-n2c(SCC(=O)NCCC3=CCCCC3)nc3n[nH]c(C)c3c2=N)c1 | active: 16.4 µM
O=C(COC(=O)c1ccc(NS(=O)(=O)c2cccs2)cc1O)Nc1ccc(F)cc1 | inconclusive: 18.3 µM [inhibitor, single point]
Cc1ccc(-c2cc(C(F)F)n3ncc(C(=O)Nc4c(C)nn(Cc5c(Cl)cccc5Cl)c4C)c3n2)cc1 | active: 4.61 µM
CC(Sc1nnc(-c2ccc(Cl)cc2)n1N)C(=O)NCC1CCCO1 (stereo not given) | inactive
CC(C)CNc1ncnc2c1cnn2Cc1ccc(Cl)cc1 | inconclusive: 23.1 µM [inhibitor, single point]
COc1ccc(CCn2c(=N)c(C(=O)NCC3CCCO3)cc3c(=O)n4ccccc4nc32)cc1OC (stereo not given) | inconclusive: 25.9 µM [inhibitor, single point]
O=C(N[C@@H]1CCC(=O)N(CC[C@H](Sc2ccccc2)c2ccccc2)CC1)OCc1ccccc1 | inconclusive: 29.1 µM [inhibitor, single point]
COCCNC(=O)c1ccccc1NC(=O)Cc1ccccc1[N+](=O)[O-] | inactive
COc1ccc(CCNC(=O)CSCC(=O)Nc2ccccc2)cc1OC | inconclusive: 5.8 µM [activator, partial curve, poor fit]
O=C(CCCCCn1nnc2ccccc2c1=O)Nc1ccccc1Cl | inconclusive: 13 µM [inhibitor, single point]
COc1ccc(OC)c(S(=O)(=O)N2CCCC(C(=O)N3CCCC3)C2)c1 (stereo not given) | inactive
O=C(Nc1ccccc1N1CCCCC1)C1CCN(S(=O)(=O)c2ccccc2C(F)(F)F)CC1 | inconclusive: 35.5 µM [inhibitor, single point]
COc1cc2cc(C)c(SCC(=O)N3CCN(C(=O)c4ccco4)CC3)nc2cc1OC | inconclusive: 23.1 µM [inhibitor, single point]

Reformatted with tabs: part of the list above
SMILES	Potency
O=C(NCCOc1ccccc1)C(=O)c1c[nH]c2ccccc12	inconclusive: 18.3 µM [activator, partial curve]
COc1cccc(-c2nc(N3CCN(C)CC3)c3ccccc3n2)c1O	inactive
CCS(=O)(=O)N1Cc2ccccc2CC1C(=O)N1CCN(c2cccc(C)c2C)CC1 (stereo not given)	inconclusive: 14.6 µM [inhibitor, partial curve, poor fit]
